This is one part of the list.
Compound: COc1ccc(Cn2ccc3ccc(C(=O)NO)cc32)cc1
Assay: dose-dependent thermal stabilisation call (2D-TPP, DLPTP, 10% FDR) (binary (1 = stabilised)); higher = stabilised by the compound
Conditions: system: HL-60 intact cells; concentration range 0.04-10 µM

By UniProt entry, the sequences of proteins in these tests, tags left out. Where a name states a change or a piece, a line headed by the entry shows the natural chain unless it says otherwise.
UniProt O75368: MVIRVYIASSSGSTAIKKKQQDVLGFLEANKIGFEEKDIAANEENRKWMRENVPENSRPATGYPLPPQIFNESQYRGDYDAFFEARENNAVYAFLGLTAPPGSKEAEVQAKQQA
UniProt Q00325: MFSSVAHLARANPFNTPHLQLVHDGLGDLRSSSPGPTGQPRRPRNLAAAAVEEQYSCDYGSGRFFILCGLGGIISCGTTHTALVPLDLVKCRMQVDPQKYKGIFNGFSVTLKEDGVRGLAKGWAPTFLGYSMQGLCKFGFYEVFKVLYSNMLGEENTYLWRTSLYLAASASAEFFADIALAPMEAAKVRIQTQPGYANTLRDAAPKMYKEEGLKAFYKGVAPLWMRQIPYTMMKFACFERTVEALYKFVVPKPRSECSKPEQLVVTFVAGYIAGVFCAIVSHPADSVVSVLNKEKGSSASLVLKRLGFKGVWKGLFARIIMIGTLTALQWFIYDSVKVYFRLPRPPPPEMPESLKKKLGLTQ
UniProt Q7Z333: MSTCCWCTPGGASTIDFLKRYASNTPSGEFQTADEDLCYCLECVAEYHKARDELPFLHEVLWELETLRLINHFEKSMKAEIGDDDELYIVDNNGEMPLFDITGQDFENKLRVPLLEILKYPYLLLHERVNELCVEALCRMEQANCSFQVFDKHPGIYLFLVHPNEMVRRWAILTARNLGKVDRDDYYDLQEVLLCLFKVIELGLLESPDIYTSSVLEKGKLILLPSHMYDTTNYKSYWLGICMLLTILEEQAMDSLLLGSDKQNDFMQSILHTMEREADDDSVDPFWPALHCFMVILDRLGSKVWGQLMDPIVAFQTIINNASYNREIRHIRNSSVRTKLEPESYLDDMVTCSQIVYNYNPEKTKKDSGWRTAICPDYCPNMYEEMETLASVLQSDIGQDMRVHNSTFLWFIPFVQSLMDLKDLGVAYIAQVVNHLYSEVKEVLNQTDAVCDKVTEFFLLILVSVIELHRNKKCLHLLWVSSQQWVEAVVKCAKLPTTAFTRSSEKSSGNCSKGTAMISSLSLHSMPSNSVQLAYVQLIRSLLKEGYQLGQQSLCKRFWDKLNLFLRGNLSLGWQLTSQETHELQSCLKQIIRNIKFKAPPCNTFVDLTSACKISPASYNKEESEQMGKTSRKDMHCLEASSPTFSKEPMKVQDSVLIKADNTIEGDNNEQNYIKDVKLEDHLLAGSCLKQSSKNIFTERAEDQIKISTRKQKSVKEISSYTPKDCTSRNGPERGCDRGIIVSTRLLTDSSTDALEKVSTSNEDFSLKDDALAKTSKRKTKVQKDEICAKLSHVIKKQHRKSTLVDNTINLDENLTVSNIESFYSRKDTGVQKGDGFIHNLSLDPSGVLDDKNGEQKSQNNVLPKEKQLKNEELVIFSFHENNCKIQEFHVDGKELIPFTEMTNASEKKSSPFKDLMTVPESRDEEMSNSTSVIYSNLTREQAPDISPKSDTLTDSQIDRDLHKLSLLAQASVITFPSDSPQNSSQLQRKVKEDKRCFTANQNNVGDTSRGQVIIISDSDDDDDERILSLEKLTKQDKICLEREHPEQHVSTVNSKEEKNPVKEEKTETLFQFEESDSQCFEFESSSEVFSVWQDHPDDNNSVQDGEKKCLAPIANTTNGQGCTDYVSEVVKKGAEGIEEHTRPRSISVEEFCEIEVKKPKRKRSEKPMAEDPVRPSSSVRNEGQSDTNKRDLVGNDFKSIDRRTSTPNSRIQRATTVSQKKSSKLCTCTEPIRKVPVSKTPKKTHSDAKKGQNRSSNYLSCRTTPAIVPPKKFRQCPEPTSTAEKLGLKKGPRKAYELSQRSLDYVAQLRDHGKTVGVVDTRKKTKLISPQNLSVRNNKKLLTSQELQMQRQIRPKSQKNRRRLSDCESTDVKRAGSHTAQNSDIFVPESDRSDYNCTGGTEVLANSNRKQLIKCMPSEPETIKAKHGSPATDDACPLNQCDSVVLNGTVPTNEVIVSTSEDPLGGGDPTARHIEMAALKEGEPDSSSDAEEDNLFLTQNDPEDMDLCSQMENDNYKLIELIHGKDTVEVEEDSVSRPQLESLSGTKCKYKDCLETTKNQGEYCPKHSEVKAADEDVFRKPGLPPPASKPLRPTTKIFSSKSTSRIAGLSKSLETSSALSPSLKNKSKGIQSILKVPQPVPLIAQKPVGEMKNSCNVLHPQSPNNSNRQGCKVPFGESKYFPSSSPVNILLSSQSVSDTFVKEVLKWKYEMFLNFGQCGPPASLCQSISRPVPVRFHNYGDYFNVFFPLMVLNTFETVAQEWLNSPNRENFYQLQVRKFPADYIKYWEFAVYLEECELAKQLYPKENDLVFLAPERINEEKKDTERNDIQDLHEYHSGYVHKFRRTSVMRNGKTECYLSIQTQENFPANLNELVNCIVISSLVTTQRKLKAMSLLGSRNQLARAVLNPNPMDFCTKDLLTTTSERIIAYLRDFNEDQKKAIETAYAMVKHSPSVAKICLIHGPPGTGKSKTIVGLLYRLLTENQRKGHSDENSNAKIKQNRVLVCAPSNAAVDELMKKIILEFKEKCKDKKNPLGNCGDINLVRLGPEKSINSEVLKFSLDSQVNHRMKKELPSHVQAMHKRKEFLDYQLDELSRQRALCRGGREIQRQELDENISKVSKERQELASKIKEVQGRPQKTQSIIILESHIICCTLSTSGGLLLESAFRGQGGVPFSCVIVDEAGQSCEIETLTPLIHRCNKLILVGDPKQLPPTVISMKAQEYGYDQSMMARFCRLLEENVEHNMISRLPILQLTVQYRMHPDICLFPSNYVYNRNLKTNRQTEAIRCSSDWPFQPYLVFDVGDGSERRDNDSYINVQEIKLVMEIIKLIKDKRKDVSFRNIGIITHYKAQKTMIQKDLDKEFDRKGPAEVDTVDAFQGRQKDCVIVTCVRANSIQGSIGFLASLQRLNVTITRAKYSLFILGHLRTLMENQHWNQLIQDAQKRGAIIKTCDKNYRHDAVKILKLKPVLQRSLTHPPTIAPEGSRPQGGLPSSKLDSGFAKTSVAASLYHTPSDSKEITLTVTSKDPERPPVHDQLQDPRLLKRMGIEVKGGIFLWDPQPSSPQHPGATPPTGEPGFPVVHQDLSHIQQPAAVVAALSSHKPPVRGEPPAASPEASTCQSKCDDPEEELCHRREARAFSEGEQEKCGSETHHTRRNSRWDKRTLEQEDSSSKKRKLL
UniProt O43819: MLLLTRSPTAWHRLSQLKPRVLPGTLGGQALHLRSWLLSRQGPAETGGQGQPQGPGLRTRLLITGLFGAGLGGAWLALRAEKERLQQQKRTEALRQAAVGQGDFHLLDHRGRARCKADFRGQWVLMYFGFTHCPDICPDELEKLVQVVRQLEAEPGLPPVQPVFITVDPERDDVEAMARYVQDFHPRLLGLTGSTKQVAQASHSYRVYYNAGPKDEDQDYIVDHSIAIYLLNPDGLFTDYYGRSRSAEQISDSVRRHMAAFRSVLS
UniProt P63208, whole entry: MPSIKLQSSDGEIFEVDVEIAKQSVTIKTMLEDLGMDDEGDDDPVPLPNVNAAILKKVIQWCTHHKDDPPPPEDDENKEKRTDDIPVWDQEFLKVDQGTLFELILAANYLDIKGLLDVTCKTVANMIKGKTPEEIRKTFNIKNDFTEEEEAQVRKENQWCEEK
UniProt Q96GZ6: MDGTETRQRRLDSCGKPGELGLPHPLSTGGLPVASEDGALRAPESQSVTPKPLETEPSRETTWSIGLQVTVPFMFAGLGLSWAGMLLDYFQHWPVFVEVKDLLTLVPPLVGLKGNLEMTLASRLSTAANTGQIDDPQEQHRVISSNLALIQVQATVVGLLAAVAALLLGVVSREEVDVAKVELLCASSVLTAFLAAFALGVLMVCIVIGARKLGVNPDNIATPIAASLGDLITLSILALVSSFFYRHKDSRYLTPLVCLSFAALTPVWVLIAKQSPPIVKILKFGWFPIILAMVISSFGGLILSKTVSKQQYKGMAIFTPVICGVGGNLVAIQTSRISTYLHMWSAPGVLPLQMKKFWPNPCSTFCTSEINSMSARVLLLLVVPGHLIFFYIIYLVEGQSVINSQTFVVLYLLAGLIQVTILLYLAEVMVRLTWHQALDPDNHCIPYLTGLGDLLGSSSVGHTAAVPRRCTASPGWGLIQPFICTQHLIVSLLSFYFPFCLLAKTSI
UniProt Q15043: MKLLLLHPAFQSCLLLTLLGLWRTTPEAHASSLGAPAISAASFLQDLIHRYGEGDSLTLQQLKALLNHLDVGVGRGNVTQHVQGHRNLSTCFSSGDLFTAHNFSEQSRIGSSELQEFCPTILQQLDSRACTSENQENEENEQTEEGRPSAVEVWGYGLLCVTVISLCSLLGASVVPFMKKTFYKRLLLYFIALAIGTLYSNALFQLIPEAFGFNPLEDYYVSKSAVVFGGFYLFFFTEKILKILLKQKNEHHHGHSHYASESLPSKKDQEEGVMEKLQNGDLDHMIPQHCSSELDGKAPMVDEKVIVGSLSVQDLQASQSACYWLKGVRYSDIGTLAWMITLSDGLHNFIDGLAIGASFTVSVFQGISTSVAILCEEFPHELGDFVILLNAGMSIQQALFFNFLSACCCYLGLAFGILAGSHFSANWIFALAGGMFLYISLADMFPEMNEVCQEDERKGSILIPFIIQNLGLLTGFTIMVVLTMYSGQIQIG
UniProt Q9BWJ5: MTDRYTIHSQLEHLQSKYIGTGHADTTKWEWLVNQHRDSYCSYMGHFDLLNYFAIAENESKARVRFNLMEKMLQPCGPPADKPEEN
UniProt Q53H47: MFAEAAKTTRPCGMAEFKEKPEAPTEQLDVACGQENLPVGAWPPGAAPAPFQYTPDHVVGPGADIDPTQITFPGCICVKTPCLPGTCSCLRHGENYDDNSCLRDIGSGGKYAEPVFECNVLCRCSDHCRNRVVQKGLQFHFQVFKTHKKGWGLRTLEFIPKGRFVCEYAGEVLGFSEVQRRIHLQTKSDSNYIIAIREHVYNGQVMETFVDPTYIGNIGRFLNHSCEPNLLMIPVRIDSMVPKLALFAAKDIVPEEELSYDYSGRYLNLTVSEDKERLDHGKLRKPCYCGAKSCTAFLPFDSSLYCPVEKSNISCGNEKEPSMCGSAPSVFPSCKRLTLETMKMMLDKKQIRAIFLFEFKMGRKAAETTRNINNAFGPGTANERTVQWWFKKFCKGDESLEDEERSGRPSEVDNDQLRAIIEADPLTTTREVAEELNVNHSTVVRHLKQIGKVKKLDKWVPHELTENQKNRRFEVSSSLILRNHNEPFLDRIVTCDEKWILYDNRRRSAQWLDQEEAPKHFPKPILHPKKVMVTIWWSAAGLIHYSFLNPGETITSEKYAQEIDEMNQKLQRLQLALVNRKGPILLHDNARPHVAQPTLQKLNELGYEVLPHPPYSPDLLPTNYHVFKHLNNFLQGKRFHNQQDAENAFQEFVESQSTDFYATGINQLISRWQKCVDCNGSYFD
UniProt P52569: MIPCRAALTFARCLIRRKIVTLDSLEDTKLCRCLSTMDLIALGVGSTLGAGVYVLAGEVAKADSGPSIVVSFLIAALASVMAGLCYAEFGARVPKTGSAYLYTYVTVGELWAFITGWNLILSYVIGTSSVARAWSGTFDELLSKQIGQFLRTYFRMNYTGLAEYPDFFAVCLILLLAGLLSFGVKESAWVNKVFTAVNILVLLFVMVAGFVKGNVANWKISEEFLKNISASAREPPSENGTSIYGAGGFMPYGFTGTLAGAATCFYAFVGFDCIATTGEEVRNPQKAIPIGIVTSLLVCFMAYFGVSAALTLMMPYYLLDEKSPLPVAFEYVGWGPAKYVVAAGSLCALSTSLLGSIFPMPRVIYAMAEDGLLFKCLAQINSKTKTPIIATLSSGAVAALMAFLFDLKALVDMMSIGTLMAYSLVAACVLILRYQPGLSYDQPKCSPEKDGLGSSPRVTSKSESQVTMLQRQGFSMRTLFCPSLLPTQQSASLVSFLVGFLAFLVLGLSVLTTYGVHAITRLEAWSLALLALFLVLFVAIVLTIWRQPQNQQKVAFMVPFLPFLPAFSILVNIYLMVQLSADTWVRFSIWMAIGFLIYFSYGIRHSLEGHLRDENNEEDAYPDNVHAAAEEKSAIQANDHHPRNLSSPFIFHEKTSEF
UniProt Q9BQE4, whole entry: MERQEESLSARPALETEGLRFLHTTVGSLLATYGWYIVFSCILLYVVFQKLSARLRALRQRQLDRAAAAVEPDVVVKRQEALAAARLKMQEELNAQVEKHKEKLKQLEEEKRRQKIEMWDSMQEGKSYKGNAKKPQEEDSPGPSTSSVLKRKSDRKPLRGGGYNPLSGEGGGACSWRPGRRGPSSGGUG
UniProt Q99720, whole entry: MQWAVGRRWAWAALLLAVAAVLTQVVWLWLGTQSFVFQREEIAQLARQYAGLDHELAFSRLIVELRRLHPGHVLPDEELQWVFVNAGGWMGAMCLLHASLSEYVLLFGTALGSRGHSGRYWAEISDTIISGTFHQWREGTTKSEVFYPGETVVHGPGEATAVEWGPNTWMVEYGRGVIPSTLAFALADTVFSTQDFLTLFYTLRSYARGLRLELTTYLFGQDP
UniProt Q99643: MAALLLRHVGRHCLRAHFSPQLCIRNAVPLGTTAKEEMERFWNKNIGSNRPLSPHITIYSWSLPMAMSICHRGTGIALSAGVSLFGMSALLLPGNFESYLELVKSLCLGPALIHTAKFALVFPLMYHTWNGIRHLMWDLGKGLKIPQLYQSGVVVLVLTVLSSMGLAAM

Target | dose-dependent thermal stabilisation call
SLC12A2 (UniProt P55011) | inactive: 0
SC4MOL (UniProt Q15800) | inactive: 0
SEC23IP (UniProt Q9Y6Y8) | inactive: 0
SEMA4A (UniProt Q9H3S1) | inactive: 0
SELK (UniProt Q9Y6D0) | inactive: 0
SCAMP3 (UniProt O14828) | inactive: 0
SH3BGRL (UniProt O75368) | inactive: 0
SLC25A3 (UniProt Q00325) | inactive: 0
SFRS2 (UniProt Q01130) | inactive: 0
SLC19A2 (UniProt O60779) | inactive: 0
SHARPIN (UniProt Q9H0F6) | inactive: 0
SFPQ (UniProt P23246) | inactive: 0
SETX (UniProt Q7Z333) | inactive: 0
SCFD1 (UniProt Q8WVM8) | inactive: 0
SEPT6 (UniProt Q14141) | inactive: 0
SLC30A9 (UniProt Q6PML9) | inactive: 0
SLC25A1 (UniProt P53007) | active: 1
SCO2 (UniProt O43819) | inactive: 0
SERBP1 (UniProt Q8NC51) | inactive: 0
SDR39U1 (UniProt Q9NRG7) | inactive: 0
SFRS1 (UniProt Q07955) | inactive: 0
SCAPER (UniProt Q9BY12) | inactive: 0
SDAD1 (UniProt Q9NVU7) | inactive: 0
SLC16A3 (UniProt O15427) | inactive: 0
SKP1 (UniProt P63208) | inactive: 0

Six records picked at random from the list so far, as already listed:
Target | dose-dependent thermal stabilisation call
SERBP1 (UniProt Q8NC51) | inactive: 0
SLC25A1 (UniProt P53007) | active: 1
SHARPIN (UniProt Q9H0F6) | inactive: 0
SEMA4A (UniProt Q9H3S1) | inactive: 0
SELK (UniProt Q9Y6D0) | inactive: 0
SDR39U1 (UniProt Q9NRG7) | inactive: 0

Further entries:

Target | dose-dependent thermal stabilisation call
SLC25A24 (UniProt Q6NUK1) | inactive: 0
SIDT2 (UniProt Q8NBJ9) | inactive: 0
SLC1A5 (UniProt Q15758) | inactive: 0
SLC30A1 (UniProt Q9Y6M5) | inactive: 0
SHPK (UniProt Q9UHJ6) | inactive: 0
SENP8 (UniProt Q96LD8) | inactive: 0
SHMT2 (UniProt P34897) | inactive: 0
SLC41A3 (UniProt Q96GZ6) | inactive: 0
SLC39A14 (UniProt Q15043) | inactive: 0
SF3B5 (UniProt Q9BWJ5) | inactive: 0
SGPL1 (UniProt O95470) | inactive: 0
SLC30A7 (UniProt Q8NEW0) | inactive: 0
SELT (UniProt P62341) | inactive: 0
SGPP1 (UniProt Q9BX95) | inactive: 0
SLC25A30 (UniProt Q5SVS4) | inactive: 0
SLC29A3 (UniProt Q9BZD2) | inactive: 0
SEPT1 (UniProt Q8WYJ6) | inactive: 0
SFRS10 (UniProt P62995) | inactive: 0
SETMAR (UniProt Q53H47) | inactive: 0
SLC7A2 (UniProt P52569) | inactive: 0
SLC7A1 (UniProt P30825) | inactive: 0
SEC23B (UniProt Q15437) | inactive: 0
SCLY (UniProt Q96I15) | inactive: 0
SEC13 (UniProt P55735) | inactive: 0
SH3BP5L (UniProt Q7L8J4) | inactive: 0

Target | dose-dependent thermal stabilisation call
SEPT2 (UniProt Q15019) | inactive: 0
SELS (UniProt Q9BQE4) | inactive: 0
SBF1 (UniProt O95248) | inactive: 0
SF4 (UniProt Q8IWZ8) | inactive: 0
SEC24B (UniProt O95487) | inactive: 0
SLC5A6 (UniProt Q9Y289) | inactive: 0
SLC7A11 (UniProt Q9UPY5) | inactive: 0
SLC35A3 (UniProt Q9Y2D2) | inactive: 0
SH3BP1 (UniProt Q9Y3L3) | inactive: 0
SHKBP1 (UniProt Q8TBC3) | inactive: 0
SLC11A2 (UniProt P49281) | inactive: 0
SIGMAR1 (UniProt Q99720) | inactive: 0
SF3B2 (UniProt Q13435) | inactive: 0
SDHA (UniProt P31040) | inactive: 0
SDHC (UniProt Q99643) | inactive: 0
SLC43A1 (UniProt O75387) | inactive: 0
SDCCAG8 (UniProt Q86SQ7) | inactive: 0
SLC38A10 (UniProt Q9HBR0) | inactive: 0
SHMT1 (UniProt P34896) | inactive: 0
SETDB1 (UniProt Q15047) | inactive: 0
SCAP (UniProt Q12770) | inactive: 0
SLC29A1 (UniProt Q99808) | inactive: 0
SAV1 (UniProt Q9H4B6) | inactive: 0
SERPINB10 (UniProt P48595) | inactive: 0
